The text below walks through data of patent US20240148779A1, “METHODS FOR THE TREATMENT OF PROTEINOPATHIES” (RENATUS INC., priority 2022, published 2024).

This assay has as its system Aβ42. The assay can be described thus: Zebrafish Alzheimer's model, amount of Aβ42 in the brain. It is filed as in vivo. As to conditions: 5 days post-injection of Aβ42, FIG. 14.

Each structure is given as a SMILES string.

In the case of `COc1cc2c(cc1OC)C(=O)C(CC1CCN(Cc3ccccc3)CC1)C2` (stereo not shown) [donepezil, Donepezil], the “amount of Aβ42 in the brain” value was “did not”.
